Assay results: patent EP4335452A1, “PHARMACEUTICAL COMPOSITION FOR ENHANCING ANTICANCER EFFECT OF ANTICANCER DRUG” (L-Base Co., Ltd., priority 2021, dated 2024)
Not every detail of the peptide structures is certain; ends, links or a residue may be inferred. Ends that are not written are not given here. Peptide text beside a SMILES is read from it. * marks the point of attachment. Benzoyl(3-Ph) = O=C(c1cccc(-c2ccccc2)c1)*; Benzoyl(4-Ph) = O=C(c1ccc(-c2ccccc2)cc1)*; Benzoyl(4-OMe) = COc1ccc(C(=O)*)cc1

Columns and labels:
H1975/OR = assay: MTT assay, cell viability, H1975/OR; assay type: cell-based; details: 3-PhPh-AQTGTGKT 5 µM alone
[1] = system: lung cancer cell line H820; assay: MTT assay, cell viability, lung cancer cell line H820; assay type: cell-based
[2] = system: non-small cell lung cancer cell line PC9/OR; assay: MTT assay, cell viability, non-small cell lung cancer cell line PC9/OR; assay type: cell-based; details: 3-PhPh-AQTGTGKT 25 µM alone, 68 hours after the 4-hour point, FIG. 3
p-Beclin1S15 = assay: Immunohistochemical staining (IHC) of p-Beclin1S15 in H820 tumor tissue; assay type: in vivo; details: nude mice, 3-PhPh-AQTGTGKT alone 10 mpk 7 times at 2-day intervals, compared to the group receiving Osimertinib alone, FIG. 7
[3] = system: H820 lung cancer cell line; assay: Heterotransplant lung cancer animal model (H820), tumor growth; assay type: in vivo; details: H820 nude mice; 3-PhPh-AQTGTGKT alone, 10 mpk, 7 times at a two-day interval for 14 days; FIG. 6A
[4] = system: lung cancer cell line H1975; assay: MTT assay, cell viability, lung cancer cell line H1975; assay type: cell-based
Protocol: Specifically, cells were seeded at 2 × 10^3/100 µl per well on a 96-well plate, and after culturing for 24 hours, the compound according to the present invention was administered; 4 hours later, anticancer drugs were treated to each cancer cell. The treatment concentration and treatment time of the compound and anticancer drug are specifically described in the embodiment. After completing the treatment of the compound and anticancer drug, CellTiter-96® reagent (Promega Co., USA) was reacted at 5% CO2, 37°C after adding 10 µl per well. After 3 hours, absorbance was measured at 490 nm using a spectrophotometer (SPECTROstar^Nano, BMG).

[5] = system: breast cancer cell line HCC1937; assay: MTT assay, cell viability, breast cancer cell line HCC1937; assay type: cell-based

C[C@H](NC(=O)c1cccc(-c2ccccc2)c1)C(=O)N[C@@H](CCC(N)=O)C(=O)N[C@H](C(=O)NCC(=O)N[C@H](C(=O)NCC(=O)N[C@@H](CCCCN)C(=O)N[C@H](C(=O)O)[C@@H](C)O)[C@@H](C)O)[C@@H](C)O ({Benzoyl(3-Ph)}-AQTGTGKT-OH)
cell viability decreased compared to the control group (H1975/OR; 68 hours after the 4-hour point, FIG. 1G): about 17% | cell viability decreased compared to the control group (H1975/OR; 72 hours after the 4-hour point, FIG. 1F): about 6.5% | cell viability decreased compared to the control group ([1]; 3-PhPh-AQTGTGKT 40 µM alone, 72 hours, FIG. 2B): about 8% | cell viability decreased compared to the control group [2]: approximately 0.2% | expression of p-Beclin1515 (p-Beclin1S15): reduced | tumor viability reduced compared to the control group (PBS administered group) [3]: about 38% | cell viability decreased compared to the control group ([4]; 3-PhPh-AQTGTGKT 25 µM alone, compared 68 hours after the 4-hour point, FIG. 1A): about 10% | decrease in cell viability compared to the control group ([5]; 3-PhPh-AQTGTGKT 10 µM alone, 24 hours, FIG. 4B): no decrease in cell viability | decrease in cell viability compared to the control group ([5]; 3-PhPh-AQTGTGKT 10 µM alone, 72 hours, FIG. 4D): about 3%

COc1ccc(C(=O)N[C@@H](C)C(=O)N[C@@H](CCC(N)=O)C(=O)N[C@H](C(=O)NCC(=O)N[C@H](C(=O)NCC(=O)N[C@@H](CCCCN)C(=O)N[C@H](C(=O)O)[C@@H](C)O)[C@@H](C)O)[C@@H](C)O)cc1 ({Benzoyl(4-OMe)}-AQTGTGKT-OH)
cell viability decreased compared to the control group ([4]; 4-MeOPh-AQTGTGKT 10 µM alone, 48 hours, FIG. 1D): about 6% | decrease in cell viability compared to the control group ([5]; 4-MeOph-AQTGTGKT 5 µM alone, 48 hours, FIG. 4C): about 4.6%

C[C@H](NC(=O)c1ccc(-c2ccccc2)cc1)C(=O)N[C@@H](CCC(N)=O)C(=O)N[C@H](C(=O)NCC(=O)N[C@H](C(=O)NCC(=O)N[C@@H](CCCCN)C(=O)N[C@H](C(=O)O)[C@@H](C)O)[C@@H](C)O)[C@@H](C)O ({Benzoyl(4-Ph)}-AQTGTGKT-OH)
cell viability decreased compared to the control group ([4]; 4-PhPh-AQTGTGKT 2 µM alone, 48 hours, FIG. 1B): about 12% | cell viability decreased compared to the control group ([4]; 4-PhPh-AQTGTGKT 2 µM alone, 48 hours, FIG. 1E): about 9%

AQTGTGKT
cell viability decreased compared to the control group ([1]; AQTGTGKT 10 µM alone, 48 hours, FIG. 2A): about 15% | decrease in cell viability compared to the control group ([5]; AQTGTGKT 5 µM alone, 24 hours, FIG. 4A): no decrease in cell viability
